PubChem BioAssay AID1224826 | NIAID, 2016

Aim: 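Knock-downs that raise or lower Tnf reporter signal after endotoxin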 (primary screen)
Cells: RAW264.7 G9 macrophages from mouse bearing reporters for p65 (GFP) and the Tnf promoter (mCherry)
Reagents: siRNA pool against mouse genes, 100 nM
Timing: 16 h of LPS stimulation, after 2 days of siRNA transfection
Treatment: bacterial lipopolysaccharide (Salmonella minnesota R595), 10 ng/ml
Detection: 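Nuclear mCherry signal of the Tnf promoter reporter measured by imaging after background removal, scaled to each plate median and turned into robust z-scores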
Scale: Tnf reporter robust z-score: higher = stronger Tnf promoter reporter signal after LPS
Rule for the call: 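a well counts as active at a score of -1.3 or below (Tlr4 knock-down control median) or above 3 (raised signal); controls and wells holding fewer than 50 cells are excluded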
Meaning of the calls: active = Tnf reporter clearly lowered or raised; inactive = no clear change in Tnf reporter
The whole screen tested about 17,000 reagents; shown is a random part of them. About 1,110 of them (6.6%) count as active. 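Active means lowered or raised reporter signal; replicate intensities are raw and not normalised per plate.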 Entries without a mark were called inactive. Further read-outs or replicates are left out here.

Target gene	Tnf reporter robust z-score	fewer than 50 cells in well
Prb1a	0.83	enough cells in well
Plp1	0.32	enough cells in well
St6gal1	-0.3	enough cells in well
Idh2	-0.51	enough cells in well
Xpnpep2	0.04	enough cells in well
Sec61b	-0.13	enough cells in well
Aarsd1	2.44	enough cells in well
Adamtsl2	-0.28	enough cells in well
Tph2		fewer than 50 cells per well; well left out of calls
Uchl4	1.75	enough cells in well
Mei1	-0.06	enough cells in well
Trdn	1.03	enough cells in well
Casp6	1.05	enough cells in well
Lmbrd2	0.83	enough cells in well
H2-M10.1	1.94	enough cells in well
Hormad1		fewer than 50 cells per well; well left out of calls
Creb3l2	-0.37	enough cells in well
Kash5	-1.48 (active)	enough cells in well
Ttc28	1.4	enough cells in well
Lingo4	-1	enough cells in well
Trim59		fewer than 50 cells per well; well left out of calls
Zc3hc1	0.01	enough cells in well
Zbtb38	-0.83	enough cells in well
Mc4r	0.31	enough cells in well
Ppp1r1a	1.73	enough cells in well
Them5		fewer than 50 cells per well; well left out of calls
Hira	-0.62	enough cells in well
Samd8		fewer than 50 cells per well; well left out of calls
Dach2	-0.27	enough cells in well
BC002118 (retired record)	0.35	enough cells in well
Vash1	0.57	enough cells in well
Zbtb5	0.56	enough cells in well
Ccl19	0.22	enough cells in well
Blm	0.68	enough cells in well
Ogn	1.57	enough cells in well
Gps2		fewer than 50 cells per well; well left out of calls
Habp4	0.79	enough cells in well
Suox	-0.6	enough cells in well
Fadd	1.08	enough cells in well
Selenon	2.38	enough cells in well
Casp9	-0.28	enough cells in well
Mex3d	0.61	enough cells in well
Rasal3	0.17	enough cells in well
Pofut3	0.88	enough cells in well
Hmgcr	1.67	enough cells in well
Tmem167		fewer than 50 cells per well; well left out of calls
Ppil4	-0.73	enough cells in well
Or12j5	-0.45	enough cells in well
Coa4	1.04	enough cells in well
Mccc2	-0.02	enough cells in well
Cd46	0.36	enough cells in well
Lhfpl6	-0.57	enough cells in well
Enah	-1	enough cells in well
Hdac2		fewer than 50 cells per well; well left out of calls
Ackr4	0.1	enough cells in well
Ntf3	-0.32	enough cells in well
Or8g20	0.95	enough cells in well
Nell1	0.53	enough cells in well
Hoxb4	-0.65	enough cells in well
Pxylp1	-0.55	enough cells in well
Pim3	1.08	enough cells in well
Slc32a1	1.33	enough cells in well
Or2ag15	2.15	enough cells in well
Shc2	1.63	enough cells in well
Akt3		fewer than 50 cells per well; well left out of calls
Cntn6	0.12	enough cells in well
Actn4		fewer than 50 cells per well; well left out of calls
Tubgcp2	0.03	enough cells in well
Eif3i	-2.09 (active)	enough cells in well
Csnk1g2	-0.48	enough cells in well
Spns1		fewer than 50 cells per well; well left out of calls
Mon1a		fewer than 50 cells per well; well left out of calls
4932414N04Rik		fewer than 50 cells per well; well left out of calls
Cmtm1	-0.18	enough cells in well
Calcrl	-0.82	enough cells in well

Called active, of those listed so far:
Target gene	Tnf reporter robust z-score	fewer than 50 cells in well
Kash5	-1.48 (active)	enough cells in well
Eif3i	-2.09 (active)	enough cells in well
